This is an account of results in article PMC12040169 (PLOS Biology, 2025).

The other results are listed elsewhere or left out.

In the test the test system is T1, CTL2-GFP (C. trachomatis L2/434/Bu, GFP-expressing).
T1 construct: L2/434/Bu, GFP-expressing
The arrangement: species or system HeLa; Intracellular C. trachomatis growth in HeLa cells, bulk GFP fluorescence relative to DMSO. Conditions: bulk GFP, single well; 28.5 h, 10 µM; inhibitor.
Take `CC(C)[C@H](CO)Nc1nccnc1-c1cccs1` [CBK089047]: the “% of control remaining” value was found to be 164.852%. Take `COc1ccc(CN(C)C2CCOCC2)cc1Cn1cncn1` [CBK306728]: the “% of control remaining” value came out at 105.948%. Consider `CN1CCC(CNS(=O)(=O)c2cccc3c2OCC3)CC1=O` (stereo not drawn) [CBK305465], for which the “% of control remaining” value worked out at 86.8557%. In the case of `O=C(NC1CC1)c1ccc(-c2cnc3[nH]c(=O)n(-c4ccc5[nH]ccc5c4)c3n2)cc1` [CBK064916] it was 188.746%; in that of `COc1ccc(C[C@@H]2NC(=O)[C@@H]3CN(C(=O)c4ccc(OC)cc4)CCN3C2=O)cc1` [CBK289598], 133.391%. For `O=C(CNC1Cc2ccccc2C1)Nc1ccc(Cl)cc1C(=O)c1ccccc1Cl` [CBK074764], the “% of control remaining” value was determined as 83.7879%. On to `Cc1c(C(=O)NCc2ccccn2)nnn1-c1cccc(C(F)(F)F)c1` [CBK107395], for which the “% of control remaining” value worked out at 98.5611%.

In the case of `Cc1cc(C)c(CNC(=O)C2CC(=O)N(Cc3ccccn3)C2)cn1` (stereo not drawn) [CBK304673], the “% of control remaining” value was determined as 136.29%.

With `O=C(c1ccc(S(=O)(=O)N2CCCCC2)cc1)N1CCN(CCN2C(=O)c3cccc4cccc(c34)C2=O)CC1` [CBK262536], the “% of control remaining” value is given as 100%. As for `CCn1c(C)cc(C(=O)CSc2nnc(N3CCCC3)n2C2CC2)c1C` [CBK306035], the figure is 133.324%; as for `COc1cc(C(=O)NCc2c(-c3ccccc3)noc2C)cc(OC)c1OC` [CBK144097], 88.5366%; as for `O=C1/C(=C/c2cn(Cc3cccc4ccccc34)c3ccccc23)C(O)=NN1c1ccccc1` [CBK264849], 100%. On to `Nc1nc2sc3c(c2cc1C(=O)N1CCOCC1)CCCC3` [CBK022399], for which the “% of control remaining” value amounted to 112.385%. `COc1ccc(C(=O)N2CCC3(CCN(Cc4ccc(OC(F)(F)F)cc4)C3)C2)cc1OC` (stereo not drawn) [CBK132148]: the “% of control remaining” value was determined as 108.568%. For the compound `Cc1nc(C2CCCN(C(=O)c3cnn(C)c3)C2)c2sccn12` (stereo not drawn) [CBK285236], the “% of control remaining” value stood at 150.404%.

`CC(C)(C)OC(=O)N1CCC[C@]2(CCC(=O)N2)[C@H]1c1cccc(F)c1` [CBK283463]: the “% of control remaining” value is 154.661%. As to `O=C(O)Cn1c2ccc(Br)cc2c2nc3ccccc3nc21` [CBK266416], the “% of control remaining” value was 222.165%. In the case of `CC(=O)c1ccc(NC(=O)c2cccc(S(=O)(=O)N3CCCCC3)c2)cc1` [CBK263246], the “% of control remaining” value was 100%. With `Cc1ccc(C(=O)Nc2ccc(N3CCCCC3)c(F)c2)c(=O)n1C` [CBK281390], the “% of control remaining” value came to 131.691%. `O=C(CCCn1ccnc1)NC(Cc1cccs1)c1nccs1` (stereo not drawn) [CBK285094]: the “% of control remaining” value was determined as 129.478%. Consider `COc1cccc(C(=O)COC(=O)c2ccc3c(c2)C(=O)N(c2ccc(C(C)=O)cc2)C3=O)c1` [CBK264872], for which the “% of control remaining” value was found to be 100%. Turning to `COc1ccc(-c2cc(C(=O)NCC(F)(F)F)cnc2-c2ccc(Cl)cc2)cn1` [CBK036698], the “% of control remaining” value is listed as 109.037%.

As for `O=S(=O)(Cc1ccc(Cl)cc1)NCCCn1ccnc1` [CBK268372], the “% of control remaining” value was 108.882%.

Regarding `O=C(Cn1c(=O)n(Cc2cccs2)c2ncccc21)N1CCCC1` [CBK283894], the “% of control remaining” value was 151.018%.

For the compound `O=[N+]([O-])c1ccc(-c2ccc(/C=N/Nc3nnc4c(n3)[nH]c3ccccc34)o2)cc1` [CBK262029], the “% of control remaining” value is reported as 111.328%. In the case of `COCCN1C(=O)C2(CC(=O)N(CCc3scnc3C)C2=O)c2cc(Cl)ccc21` (stereo not drawn) [CBK075321] it was 90.8105%; in that of `O=C(c1ccccc1)N1C[C@@H](c2ccsc2)[C@@H]2CN(Cc3ccccc3)CC[C@@H]21` [CBK285602], 89.0803%. Consider `CC(C)[C@@H](CO)Nc1cncc(-c2cccnc2)n1` [CBK065467], for which the “% of control remaining” value is listed as 79.7098%.

As for `C#CCN(C1CCc2ccccc21)S(=O)(=O)c1cc(C(N)=O)n(C)c1` (stereo not drawn) [CBK304287], the “% of control remaining” value is recorded as 133.004%. As for `O=C(CCN1C(=O)C2C3CCC(C3)C2C1=O)OCC(=O)c1ccc(-c2ccccc2)cc1` (stereo not drawn) [CBK265113], the figure is 162.131%; as for `CN(C)CCN1CCN(c2nccnc2-c2cccc(CO)c2)CC1` [CBK037047], 151.429%. `c1ccc(CNc2nccn3ccnc23)nc1` [CBK037526]: the “% of control remaining” value turned out to be 148.077%. As for `Cc1ccnc(NCC2CCN(c3cc(=O)n4oc(C)cc4n3)C2)c1` (stereo not drawn) [CBK305191], the figure is 150.997%. In the case of `COc1cncc(-c2cnc(N)c(NC3CCOCC3)n2)c1` [CBK063846] it was 107.269%; in that of `Cn1cncc1C(=O)N1CCN(Cc2ccccc2)CC1` [CBK200178], 113.675%; in that of `Cc1ccccc1-n1ccn(C(=O)CCC2CCCC2)c1=O` [CBK106571], 118.888%. `O=C(c1ccccc1F)N1CCC(c2cc3ncccc3[nH]2)CC1` [CBK283391]: the “% of control remaining” value stood at 131.769%. On to `c1cc(-c2nccnc2OCCn2ccnc2)ccn1` [CBK106737], for which the “% of control remaining” value is listed as 105.287%. With `Cc1cc2c3c(c1)c1c(n3CCC2)CCNCC1` [CBK018380C], the “% of control remaining” value was determined as 86.1706%. As for `CCC(C)N1CCN(S(=O)(=O)c2ccccc2[N+](=O)[O-])CC1` (stereo not drawn) [CBK264270G], the “% of control remaining” value amounted to 100%. Regarding `Cc1ccc(CSCC(=O)N2CCC(Cc3ccccc3)CC2)cc1` [CBK058739], the “% of control remaining” value was found to be 109.158%.

Take `COc1ccc(Cn2nc(NC(=O)OC(C)C)c3ccccc32)cc1` [CBK048404]: the “% of control remaining” value stood at 177.172%.

For `Cc1ccc(-c2cncc(N3CCN(CCO)CC3)n2)cc1C` [CBK065912], the “% of control remaining” value is recorded as 135.116%. For `CC(=O)C1=C(c2ccccc2)NC(=S)NC1c1cc(Cl)ccc1OCC(=O)O` (stereo not drawn) [CBK267300], the “% of control remaining” value was 132.472%. As for `Cc1nc(CC(=O)OC(C)C(=O)N2CCCc3ccccc32)cs1` (stereo not drawn) [CBK305285], the “% of control remaining” value is recorded as 101.971%. As for `CC1=Nc2ccc(Cl)cc2C(C)(C)O1` [CBK022763C], the figure is 124.408%; as for `COc1ccc(/C=N/NC(=O)CCc2c(C)n[nH]c2C)cc1O` [CBK262894], 113.182%. Turning to `O=C(CCn1c(C(F)F)cc2cccnc21)NCc1ccc(F)cc1` [CBK285067], the “% of control remaining” value came out at 89.0435%. As to `O=C(Cn1nnc2ccccc2c1=O)NCC(F)(F)F` [CBK304533], the “% of control remaining” value is on record as 147.255%. With `COc1ccc(-c2cccc(Nc3cccnc3)n2)cc1OC` [CBK037644], the “% of control remaining” value stood at 120.012%.

For the compound `Cc1c(C)n(C)c2nc(N3CCCC3)nc(N3CCCC3)c12` [CBK016683C], the “% of control remaining” value stood at 100%. In the case of `CCc1nc2ccc(C(=O)NCCOc3ccc(OC)cc3)cn2c1N(C)CC` [CBK145504], the “% of control remaining” value came to 155.992%. In the case of `O=C(O)COc1ccc(S(=O)(=O)N2CCCCC2)cc1Cl` [CBK268419] it was 107.797%. `O=c1oc(-c2cccc(F)c2)nc2ccc(Cc3ccc4nc(-c5cccc(F)c5)oc(=O)c4c3)cc12` [CBK262856]: the “% of control remaining” value was determined as 101.693%. For `CCOc1ccccc1-c1ccccc1NC(=O)c1cc(=O)n(C)c2ccccc12` [CBK285843], the “% of control remaining” value stood at 106.628%. In the case of `Cn1cnnc1C1CCCN(C(=O)NCc2cccc(F)c2)C1` (stereo not drawn) [CBK305792] it was 111.484%; in that of `CCc1cccc2c(CC(=O)NC3CCCOC3)c(C)[nH]c12` (stereo not drawn) [CBK282584], 118.534%; in that of `Cc1c(C(=O)N2CCN(C3CCCCC3)C(=O)C2)[nH]c2ccccc12` [CBK282539], 111.939%. `O=C(NC1CCCc2nc(N3CCC(CO)CC3)ncc21)C1CCCC1` (stereo not drawn) [CBK307415]: the “% of control remaining” value came out at 105.033%. For the compound `Cc1ccccc1CN1CCCN(C(=O)CCNC(=O)c2ccco2)CC1` [CBK297718], the “% of control remaining” value is on record as 147.943%.

Take `COC1CCC(C(=O)Nc2cnc(-c3cccc(OC(F)(F)F)c3)c(-c3cccnc3)n2)CC1` (stereo not drawn) [CBK036754]: the “% of control remaining” value came to 176.656%. In the case of `c1csc(-c2cncc(NCCCN3CCOCC3)n2)c1` [CBK065623], the “% of control remaining” value was 140.174%.

Consider `C[C@H]1[C@@H]2[C@@H](O)C([C@H](C)C(=O)N3CCCC3)CC[C@@]2(C)CC[C@@H]1NC(=O)c1ccncc1` (stereo partly drawn) [CBK289450], for which the “% of control remaining” value is 115.337%. On to `N#CCCN(C(=O)Nc1ccc2c(c1)OCCO2)C1CCCCC1` [CBK156364], for which the “% of control remaining” value is on record as 137.765%.

Consider `O=C(Nc1cc(-c2nc3ncccc3o2)ccc1Cl)c1cccnc1` [CBK269700], for which the “% of control remaining” value is recorded as 136.315%. Turning to `OCCOc1ccccc1N1CCOCC1` [CBK001767C], the “% of control remaining” value was found to be 91.3146%. In the case of `COc1c(C)cnc(COC(=O)N2CCOCC2)c1C` [CBK200145] it was 192.847%; in that of `CCOCC1CCN(C(=O)c2ncsc2Nc2cccnc2)C1` (stereo not drawn) [CBK304514], 91.4412%; in that of `CC(C)CC(CC(C)C)OCC(=O)NCC1(c2ccc3ccccc3c2)CCC1` [CBK067404], 104.655%. With `O=C(C1=C(O)C(=O)N(c2ncccn2)C1c1cccc([N+](=O)[O-])c1)c1ccc(F)cc1` (stereo not drawn) [CBK264932], the “% of control remaining” value was 120.691%. As to `O=C(Cn1cc(C(=O)COc2ccccc2)c2ccccc21)Nc1ccccc1` [CBK267653], the “% of control remaining” value is on record as 75.6299%. As for `CC(Nc1oc(-c2ccco2)nc1S(=O)(=O)c1ccc(F)cc1)c1ccccc1` (stereo not drawn) [CBK267671], the figure is 124.123%; as for `Clc1ccccc1-c1nccnc1OC(c1ccccc1)c1ccccc1` [CBK107002], 69.0632%. Consider `CC(C)(C)C(=O)NCCn1nc(-c2cccs2)ccc1=O` [CBK283839], for which the “% of control remaining” value was determined as 93.1545%. `Cc1nc(-c2cccnc2)[nH]c(=O)c1CC(=O)N(C)CC1CCCCC1` [CBK305785]: the “% of control remaining” value worked out at 130.677%. With `CCC(c1cccc(OC)c1)N(C)C(=O)CC1CCN(c2nc(C)cc(C)n2)CC1` (stereo not drawn) [CBK286255], the “% of control remaining” value amounted to 123.944%.

On to `Cc1cc(NC(=O)c2ccc(C(C)(C)C)cc2)nc2c1c(=O)oc1ccccc12` [CBK291200], for which the “% of control remaining” value is recorded as 85.471%.

As to `O=C(O)c1ccccc1-c1ccc(-c2cc(C(=O)O)c3cc(Cl)ccc3n2)o1` [CBK268699], the “% of control remaining” value turned out to be 124.243%.
